Data as given in the supplement of paper PMC12819154, “High-throughput peptide-centric local stability assay extends protein–ligand identification to membrane proteins, tissues and bacteria” (Nature Structural & Molecular Biology, 2025).
The list shows a part of the results. Most entries show no effect beyond the scatter of the controls.

By UniProt entry, the sequences of proteins in these tests, tags left out. Where a name states a change or a piece, a line headed by the entry shows the natural chain unless it says otherwise.
UniProt Q925E7: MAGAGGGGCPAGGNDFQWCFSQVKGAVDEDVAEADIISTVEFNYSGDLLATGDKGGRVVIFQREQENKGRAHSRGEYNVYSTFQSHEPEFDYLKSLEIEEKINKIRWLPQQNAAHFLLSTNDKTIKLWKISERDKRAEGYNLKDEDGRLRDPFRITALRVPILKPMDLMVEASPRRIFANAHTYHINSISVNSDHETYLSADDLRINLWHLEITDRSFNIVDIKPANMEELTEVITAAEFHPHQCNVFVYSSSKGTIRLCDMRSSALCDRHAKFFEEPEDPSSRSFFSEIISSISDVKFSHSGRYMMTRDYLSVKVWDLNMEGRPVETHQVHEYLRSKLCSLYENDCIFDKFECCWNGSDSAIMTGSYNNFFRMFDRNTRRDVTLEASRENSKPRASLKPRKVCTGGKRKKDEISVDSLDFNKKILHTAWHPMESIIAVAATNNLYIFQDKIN
UniProt Q99L20: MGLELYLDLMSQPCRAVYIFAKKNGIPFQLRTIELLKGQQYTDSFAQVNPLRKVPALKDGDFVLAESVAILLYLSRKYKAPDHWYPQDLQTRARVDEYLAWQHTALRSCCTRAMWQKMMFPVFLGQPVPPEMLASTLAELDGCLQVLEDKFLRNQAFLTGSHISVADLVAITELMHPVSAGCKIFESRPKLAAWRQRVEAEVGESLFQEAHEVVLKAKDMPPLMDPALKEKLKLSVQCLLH
UniProt Q924T7: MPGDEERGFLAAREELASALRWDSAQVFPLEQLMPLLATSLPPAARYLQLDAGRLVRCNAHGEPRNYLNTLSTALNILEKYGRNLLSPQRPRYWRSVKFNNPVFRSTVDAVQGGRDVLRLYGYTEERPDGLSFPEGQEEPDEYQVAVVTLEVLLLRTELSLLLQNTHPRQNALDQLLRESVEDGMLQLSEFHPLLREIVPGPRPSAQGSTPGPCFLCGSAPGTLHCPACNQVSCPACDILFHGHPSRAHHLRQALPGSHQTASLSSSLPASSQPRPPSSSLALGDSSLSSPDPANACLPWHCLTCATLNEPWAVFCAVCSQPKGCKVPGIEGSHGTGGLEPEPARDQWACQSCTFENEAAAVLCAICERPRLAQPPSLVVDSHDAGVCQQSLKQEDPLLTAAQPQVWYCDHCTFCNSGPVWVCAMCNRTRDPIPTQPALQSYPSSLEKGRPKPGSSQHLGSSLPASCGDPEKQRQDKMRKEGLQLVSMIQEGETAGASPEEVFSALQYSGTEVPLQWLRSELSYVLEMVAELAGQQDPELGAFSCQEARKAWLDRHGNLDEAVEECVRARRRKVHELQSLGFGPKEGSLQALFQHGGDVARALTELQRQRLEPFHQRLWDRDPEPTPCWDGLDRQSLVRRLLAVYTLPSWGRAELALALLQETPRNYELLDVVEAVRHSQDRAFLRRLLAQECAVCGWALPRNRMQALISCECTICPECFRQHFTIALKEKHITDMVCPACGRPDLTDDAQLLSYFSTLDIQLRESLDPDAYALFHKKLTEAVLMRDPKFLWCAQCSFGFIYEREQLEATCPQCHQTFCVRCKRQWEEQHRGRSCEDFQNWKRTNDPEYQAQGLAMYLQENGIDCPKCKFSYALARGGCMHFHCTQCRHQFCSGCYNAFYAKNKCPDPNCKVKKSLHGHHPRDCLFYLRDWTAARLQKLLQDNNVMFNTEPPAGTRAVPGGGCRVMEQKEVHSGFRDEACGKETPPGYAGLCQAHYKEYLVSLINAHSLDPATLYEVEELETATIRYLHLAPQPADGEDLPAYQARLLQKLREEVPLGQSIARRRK
UniProt Q922K7: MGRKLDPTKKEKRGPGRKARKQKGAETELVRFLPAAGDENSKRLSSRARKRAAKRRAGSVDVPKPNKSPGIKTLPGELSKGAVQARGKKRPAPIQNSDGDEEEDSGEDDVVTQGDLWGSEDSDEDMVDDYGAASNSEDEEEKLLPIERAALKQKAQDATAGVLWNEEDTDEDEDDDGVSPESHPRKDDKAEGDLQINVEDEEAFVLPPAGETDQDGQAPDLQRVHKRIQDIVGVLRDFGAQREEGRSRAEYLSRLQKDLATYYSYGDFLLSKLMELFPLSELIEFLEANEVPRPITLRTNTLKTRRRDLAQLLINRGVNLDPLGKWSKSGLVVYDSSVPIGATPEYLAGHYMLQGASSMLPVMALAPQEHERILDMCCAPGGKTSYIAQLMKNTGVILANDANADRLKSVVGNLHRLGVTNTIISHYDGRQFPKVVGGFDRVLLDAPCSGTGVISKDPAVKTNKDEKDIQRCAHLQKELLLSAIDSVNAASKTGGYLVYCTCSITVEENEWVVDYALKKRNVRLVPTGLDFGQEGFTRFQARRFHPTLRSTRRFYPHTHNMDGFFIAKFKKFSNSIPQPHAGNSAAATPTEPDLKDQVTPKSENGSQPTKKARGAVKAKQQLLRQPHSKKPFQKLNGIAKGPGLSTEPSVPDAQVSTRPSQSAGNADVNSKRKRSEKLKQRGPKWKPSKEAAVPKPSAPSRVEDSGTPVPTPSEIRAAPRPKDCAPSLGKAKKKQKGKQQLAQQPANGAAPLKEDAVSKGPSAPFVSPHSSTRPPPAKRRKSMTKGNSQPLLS
UniProt Q99KK7: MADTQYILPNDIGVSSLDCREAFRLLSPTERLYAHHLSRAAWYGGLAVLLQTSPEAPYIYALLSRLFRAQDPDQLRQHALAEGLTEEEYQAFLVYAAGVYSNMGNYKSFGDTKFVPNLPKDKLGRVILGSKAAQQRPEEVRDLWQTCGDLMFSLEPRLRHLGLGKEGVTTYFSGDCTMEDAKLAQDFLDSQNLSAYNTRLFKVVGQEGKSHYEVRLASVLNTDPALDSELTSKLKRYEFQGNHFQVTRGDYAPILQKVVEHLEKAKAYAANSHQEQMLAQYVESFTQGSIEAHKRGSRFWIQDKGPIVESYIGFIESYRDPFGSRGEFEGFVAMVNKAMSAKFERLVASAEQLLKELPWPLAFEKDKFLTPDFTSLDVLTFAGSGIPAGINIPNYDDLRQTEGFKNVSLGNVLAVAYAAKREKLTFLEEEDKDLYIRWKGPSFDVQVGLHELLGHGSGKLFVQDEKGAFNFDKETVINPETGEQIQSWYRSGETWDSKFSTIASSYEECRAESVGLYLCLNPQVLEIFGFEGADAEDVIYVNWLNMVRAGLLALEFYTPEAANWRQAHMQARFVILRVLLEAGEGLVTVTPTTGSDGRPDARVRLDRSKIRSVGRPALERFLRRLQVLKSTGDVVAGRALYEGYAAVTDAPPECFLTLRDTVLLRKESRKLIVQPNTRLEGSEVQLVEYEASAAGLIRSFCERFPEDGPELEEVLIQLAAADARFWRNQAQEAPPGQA
UniProt Q99LC9: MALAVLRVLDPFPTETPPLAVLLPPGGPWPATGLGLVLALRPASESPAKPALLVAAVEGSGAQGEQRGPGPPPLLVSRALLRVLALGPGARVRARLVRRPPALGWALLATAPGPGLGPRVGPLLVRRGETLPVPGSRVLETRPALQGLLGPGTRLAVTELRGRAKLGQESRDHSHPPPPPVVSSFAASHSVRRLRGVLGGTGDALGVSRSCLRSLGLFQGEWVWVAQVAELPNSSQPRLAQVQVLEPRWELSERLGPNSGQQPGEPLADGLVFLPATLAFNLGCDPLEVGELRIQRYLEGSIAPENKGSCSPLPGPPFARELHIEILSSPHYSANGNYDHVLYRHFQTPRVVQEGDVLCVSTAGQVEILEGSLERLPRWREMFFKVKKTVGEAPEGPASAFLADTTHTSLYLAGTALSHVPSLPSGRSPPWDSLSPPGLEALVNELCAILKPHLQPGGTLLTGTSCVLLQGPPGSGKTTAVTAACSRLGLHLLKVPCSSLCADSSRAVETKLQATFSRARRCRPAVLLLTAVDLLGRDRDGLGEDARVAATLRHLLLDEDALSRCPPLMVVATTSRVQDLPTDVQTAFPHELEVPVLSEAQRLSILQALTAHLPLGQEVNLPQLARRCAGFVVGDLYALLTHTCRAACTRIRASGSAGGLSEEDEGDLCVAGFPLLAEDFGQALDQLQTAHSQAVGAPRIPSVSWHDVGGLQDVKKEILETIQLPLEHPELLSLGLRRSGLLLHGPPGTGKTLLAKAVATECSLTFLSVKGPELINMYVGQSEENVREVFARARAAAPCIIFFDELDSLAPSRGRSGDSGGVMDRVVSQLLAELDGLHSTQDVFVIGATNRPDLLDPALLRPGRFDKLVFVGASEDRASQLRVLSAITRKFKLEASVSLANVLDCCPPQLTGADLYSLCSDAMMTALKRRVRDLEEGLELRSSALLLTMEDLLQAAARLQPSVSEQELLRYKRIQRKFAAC
UniProt Q920Q6, whole entry: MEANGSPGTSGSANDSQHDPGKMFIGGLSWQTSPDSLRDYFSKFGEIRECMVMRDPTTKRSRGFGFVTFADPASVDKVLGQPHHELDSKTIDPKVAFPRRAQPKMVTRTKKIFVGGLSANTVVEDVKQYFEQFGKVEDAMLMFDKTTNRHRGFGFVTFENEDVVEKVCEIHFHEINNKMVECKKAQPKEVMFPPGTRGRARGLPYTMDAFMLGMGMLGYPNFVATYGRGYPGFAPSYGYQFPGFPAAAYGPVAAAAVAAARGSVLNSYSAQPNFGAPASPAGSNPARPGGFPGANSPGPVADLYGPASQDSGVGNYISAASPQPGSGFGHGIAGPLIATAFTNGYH
UniProt Q920E5: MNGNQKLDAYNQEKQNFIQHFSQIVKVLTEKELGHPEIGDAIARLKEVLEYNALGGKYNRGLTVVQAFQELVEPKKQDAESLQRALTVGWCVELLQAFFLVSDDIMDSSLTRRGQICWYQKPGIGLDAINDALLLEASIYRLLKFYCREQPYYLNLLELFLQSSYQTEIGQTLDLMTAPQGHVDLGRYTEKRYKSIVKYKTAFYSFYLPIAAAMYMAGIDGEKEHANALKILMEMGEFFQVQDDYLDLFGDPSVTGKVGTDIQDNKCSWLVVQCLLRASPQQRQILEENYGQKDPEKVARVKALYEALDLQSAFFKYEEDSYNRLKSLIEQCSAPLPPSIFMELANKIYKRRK
UniProt Q99JX1: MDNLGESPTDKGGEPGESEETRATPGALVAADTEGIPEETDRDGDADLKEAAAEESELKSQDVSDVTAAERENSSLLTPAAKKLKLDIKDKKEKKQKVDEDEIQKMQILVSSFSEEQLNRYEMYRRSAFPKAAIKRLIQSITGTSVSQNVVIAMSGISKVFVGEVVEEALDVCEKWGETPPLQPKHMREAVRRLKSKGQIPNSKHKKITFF
UniProt Q920A7: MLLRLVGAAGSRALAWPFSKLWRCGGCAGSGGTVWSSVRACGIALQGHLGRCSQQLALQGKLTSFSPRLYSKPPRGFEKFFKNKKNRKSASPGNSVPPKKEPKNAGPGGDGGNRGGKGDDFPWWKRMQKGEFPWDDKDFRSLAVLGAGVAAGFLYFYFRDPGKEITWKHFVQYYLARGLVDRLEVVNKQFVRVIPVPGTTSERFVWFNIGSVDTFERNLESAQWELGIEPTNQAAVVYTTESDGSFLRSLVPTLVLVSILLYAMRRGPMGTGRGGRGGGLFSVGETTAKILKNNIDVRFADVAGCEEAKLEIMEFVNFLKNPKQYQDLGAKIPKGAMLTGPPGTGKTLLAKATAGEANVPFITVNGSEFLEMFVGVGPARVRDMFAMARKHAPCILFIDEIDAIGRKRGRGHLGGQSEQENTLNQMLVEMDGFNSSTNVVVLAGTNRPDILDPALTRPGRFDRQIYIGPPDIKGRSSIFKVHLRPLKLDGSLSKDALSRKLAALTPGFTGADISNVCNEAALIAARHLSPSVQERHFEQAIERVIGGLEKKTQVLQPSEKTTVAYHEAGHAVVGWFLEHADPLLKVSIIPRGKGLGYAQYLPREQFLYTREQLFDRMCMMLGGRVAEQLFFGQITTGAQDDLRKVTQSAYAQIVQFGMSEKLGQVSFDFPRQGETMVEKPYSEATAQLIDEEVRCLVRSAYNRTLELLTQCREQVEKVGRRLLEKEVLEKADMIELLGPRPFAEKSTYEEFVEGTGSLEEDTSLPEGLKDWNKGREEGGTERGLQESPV
UniProt Q99JT1: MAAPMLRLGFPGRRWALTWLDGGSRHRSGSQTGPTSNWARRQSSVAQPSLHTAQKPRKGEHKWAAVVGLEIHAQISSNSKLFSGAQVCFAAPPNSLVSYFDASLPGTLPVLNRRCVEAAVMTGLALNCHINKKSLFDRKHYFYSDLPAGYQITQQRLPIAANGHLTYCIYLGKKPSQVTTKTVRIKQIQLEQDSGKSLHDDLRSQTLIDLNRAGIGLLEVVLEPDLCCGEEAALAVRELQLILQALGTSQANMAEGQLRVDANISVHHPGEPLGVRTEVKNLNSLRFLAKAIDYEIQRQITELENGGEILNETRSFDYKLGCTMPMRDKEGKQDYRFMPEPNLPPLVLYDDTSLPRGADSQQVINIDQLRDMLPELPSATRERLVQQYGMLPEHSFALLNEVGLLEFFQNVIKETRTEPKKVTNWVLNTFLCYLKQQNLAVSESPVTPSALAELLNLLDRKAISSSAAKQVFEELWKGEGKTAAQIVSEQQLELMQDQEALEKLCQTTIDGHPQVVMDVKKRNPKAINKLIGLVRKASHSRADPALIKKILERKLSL

These targets were tested with CN[C@@H]1C[C@H]2O[C@@](C)([C@@H]1OC)n1c3ccccc3c3c4c(c5c6ccccc6n2c5c31)C(=O)NC4 [staurosporine] (assay: log2 fold change of tryptic peptide abundance, ligand vs vehicle (limited proteolysis) (log2 ratio); higher = more trypsin-susceptible (destabilized)). Details: ligand concentration: 20 uM; sample: mouse liver crude lysate; replicate design: treated separately.

Row | Target | log2 fold change
1 | UniProt Q99K24 (peptide sequence: SHSLYPEPTAHTHGAGLR, peptide start residue: 144) | -0.0719
2 | UniProt Q921K9 (peptide sequence: KWVTVGDTSLR, peptide start residue: 34) | -0.25
3 | UniProt Q99J78 (peptide sequence: QAIEECK, peptide start residue: 84) | -0.261
4 | UniProt Q925E7 (peptide sequence: VPILKPMDLMVEASPR, peptide start residue: 160) | 0.265
5 | UniProt Q99L47 (peptide sequence: LAILYAKR, peptide start residue: 146) | 0.394
6 | UniProt Q99JH7 (peptide sequence: AAVTEGK, peptide start residue: 152) | 0.453
7 | UniProt Q99L20 (peptide sequence: IFESRPK, peptide start residue: 184) | -0.279
8 | UniProt Q922E4 (peptide sequence: RPYVIAGLHFDQEVNR, peptide start residue: 260) | 0.306
9 | UniProt Q99LD4 (peptide sequence: MALSFVQR, peptide start residue: 61) | -0.262
10 | UniProt Q922Q8 (peptide sequence: LEVEREAEK, peptide start residue: 163) | -0.185
11 | UniProt Q924T7 (peptide sequence: LREEVPLGQSIAR, peptide start residue: 1051) | -0.473
12 | UniProt Q91ZX6 (peptide sequence: RPHCTVEEGVQKDER, peptide start residue: 200) | 0.366
13 | UniProt Q922K7 (peptide sequence: VLLDAPCSGTGVISKDPAVK, peptide start residue: 442) | 0.262
14 | UniProt Q921Q3 (peptide sequence: PHPPCGHPSCR, peptide start residue: 470) | -0.297
15 | UniProt Q99KK7 (peptide sequence: STGDVVAGR, peptide start residue: 630) | -0.246
16 | UniProt Q99KK1 (peptide sequence: KRPQVYF, peptide start residue: 248) | 0.11
17 | UniProt Q922Q5 (peptide sequence: YVSISVPSK, peptide start residue: 11) | -0.195
18 | UniProt Q922R0 (peptide sequence: VSAPAADPKPR, peptide start residue: 23) | -0.31
19 | UniProt Q99LI7 (peptide sequence: ETALLVDR, peptide start residue: 520) | -0.244
20 | UniProt Q99LC9 (peptide sequence: IPSVSWHDVGGLQDVK, peptide start residue: 700) | -0.185

No new results follow: an excerpt of the list.
Row | Target | log2 fold change
8 | UniProt Q922E4 (peptide sequence: RPYVIAGLHFDQEVNR, peptide start residue: 260) | 0.306
9 | UniProt Q99LD4 (peptide sequence: MALSFVQR, peptide start residue: 61) | -0.262
10 | UniProt Q922Q8 (peptide sequence: LEVEREAEK, peptide start residue: 163) | -0.185
11 | UniProt Q924T7 (peptide sequence: LREEVPLGQSIAR, peptide start residue: 1051) | -0.473
12 | UniProt Q91ZX6 (peptide sequence: RPHCTVEEGVQKDER, peptide start residue: 200) | 0.366
13 | UniProt Q922K7 (peptide sequence: VLLDAPCSGTGVISKDPAVK, peptide start residue: 442) | 0.262
14 | UniProt Q921Q3 (peptide sequence: PHPPCGHPSCR, peptide start residue: 470) | -0.297
15 | UniProt Q99KK7 (peptide sequence: STGDVVAGR, peptide start residue: 630) | -0.246
16 | UniProt Q99KK1 (peptide sequence: KRPQVYF, peptide start residue: 248) | 0.11
17 | UniProt Q922Q5 (peptide sequence: YVSISVPSK, peptide start residue: 11) | -0.195

(next part)

Row | Target | log2 fold change
21 | UniProt Q920Q6 (peptide sequence: ECMVMRDPTTKR, peptide start residue: 49) | 0.0301
22 | UniProt Q921F2 (peptide sequence: FTEYETQVK, peptide start residue: 152) | 0.183
23 | UniProt Q920E5 (peptide sequence: KQDAESLQR, peptide start residue: 76) | -0.3
24 | UniProt Q99JX1 (peptide sequence: ENSSLLTPAAK, peptide start residue: 72) | 0.387
25 | UniProt Q925N0 (peptide sequence: TLFVTEKR, peptide start residue: 54) | -0.179
26 | UniProt Q99LI9 (peptide sequence: GCFYPHAFNVK, peptide start residue: 310) | 0.155
27 | UniProt Q920A7 (peptide sequence: LLEKEVLEK, peptide start residue: 722) | 0.502
28 | UniProt Q99KC8 (peptide sequence: ELNKPVQGPLAHR, peptide start residue: 594) | -0.788
29 | UniProt Q99LD8 (peptide sequence: TVVAGSSEAAQK, peptide start residue: 183) | -0.728
30 | UniProt Q99JY8 (peptide sequence: REILSPVDIIDR, peptide start residue: 294) | 0.561
31 | UniProt Q925F2 (peptide sequence: NGTLSSVTSAR, peptide start residue: 310) | -0.147
32 | UniProt Q920S3 (peptide sequence: SSPFPTVPTRPEK, peptide start residue: 231) | -0.113
33 | UniProt Q924H2 (peptide sequence: SLLDILTDPSKR, peptide start residue: 569) | -0.142
34 | UniProt Q99JR8 (peptide sequence: MADKVLPQR, peptide start residue: 140) | -0.285
35 | UniProt Q99K48 (peptide sequence: MEELHNQEVQK, peptide start residue: 328) | 0.129
36 | UniProt Q99KR6 (peptide sequence: LYKENEENQK, peptide start residue: 303) | -0.104
37 | UniProt Q99JT1 (peptide sequence: ETRTEPKK, peptide start residue: 414) | 0.252
38 | UniProt Q923J1 (peptide sequence: LGSSPNSSPHMSSPPTK, peptide start residue: 1383) | -0.341
39 | UniProt Q99JI1 (peptide sequence: NRTGTETVFEKPK, peptide start residue: 61) | 0.119
40 | UniProt Q99LE6 (peptide sequence: TRLELEENQMKR, peptide start residue: 321) | -0.554
